Our source for the binding values is PMC4783044, “Stoichiometry and Change of the mRNA Closed-Loop Factors as Translating Ribosomes Transit from Initiation to Elongation” (PLoS ONE, 2016).

Sequences of proteins named here, by UniProt entry; tags and fusion partners are left off.
UniProt P04456: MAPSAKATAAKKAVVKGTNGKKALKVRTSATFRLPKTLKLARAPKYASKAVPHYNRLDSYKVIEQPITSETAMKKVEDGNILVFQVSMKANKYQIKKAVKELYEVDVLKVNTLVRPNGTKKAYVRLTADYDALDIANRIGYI

Results are given in words; binding and its absence hold for the method and conditions named. In cells and extracts the contact can be indirect. Some binding calls cover weakened binding; strength is not graded here. Sequences can lack the tags named with a protein.

The target of experiment [1] is T1, Flag-PAB1 (yeast, UniProt P04147 1-577).
T1 sequence (looked up): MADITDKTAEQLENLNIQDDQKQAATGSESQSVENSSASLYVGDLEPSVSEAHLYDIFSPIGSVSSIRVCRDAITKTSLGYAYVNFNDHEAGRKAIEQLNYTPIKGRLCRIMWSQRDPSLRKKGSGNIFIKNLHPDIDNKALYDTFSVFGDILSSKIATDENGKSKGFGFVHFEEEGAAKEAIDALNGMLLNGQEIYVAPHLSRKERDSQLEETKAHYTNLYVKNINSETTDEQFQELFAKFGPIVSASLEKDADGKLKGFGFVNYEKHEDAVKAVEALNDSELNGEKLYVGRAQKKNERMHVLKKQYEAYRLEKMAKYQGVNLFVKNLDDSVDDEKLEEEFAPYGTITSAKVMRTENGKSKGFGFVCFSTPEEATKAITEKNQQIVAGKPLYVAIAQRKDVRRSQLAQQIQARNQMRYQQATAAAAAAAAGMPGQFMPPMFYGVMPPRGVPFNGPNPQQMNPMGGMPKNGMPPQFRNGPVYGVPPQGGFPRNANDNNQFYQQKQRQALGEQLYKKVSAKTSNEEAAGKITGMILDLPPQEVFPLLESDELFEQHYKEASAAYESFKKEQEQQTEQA
Nature of the experiment: co-IP + AUC; as a1, but material migrating from 90S to 200S (polysomal translating complexes); cells on glucose (elongation), or glucose depleted 10 min and glucose added back for 1 min (initiation).

A further experiment deals with RPL25A-Flag (yeast) (UniProt P04456). In words: co-IP + AUC; RPL25A-Flag anti-Flag bead purification from yeast crude extract, Flag peptide elution, AU-FDS of the GFP fusion; 80S free ribosome; cells depleted of glucose for 10 min, also on glucose.
A further experiment addresses T2, eIF4E-Flag (yeast, UniProt P07260 1-213).
T2 sequence (looked up): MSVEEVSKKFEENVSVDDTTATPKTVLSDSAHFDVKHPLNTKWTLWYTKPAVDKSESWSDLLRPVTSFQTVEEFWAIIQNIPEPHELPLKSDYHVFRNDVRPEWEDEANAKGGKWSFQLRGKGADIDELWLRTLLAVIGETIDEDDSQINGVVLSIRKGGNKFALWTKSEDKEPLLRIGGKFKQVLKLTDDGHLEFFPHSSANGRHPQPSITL
Nature of the experiment: co-IP + AUC; one-step anti-Flag bead purification from yeast crude extract (Tris pH 7.5, 0.15 M KCl, 2 mM MgCl2, 10% glycerol, 4°C), Flag peptide elution, then AU-FDS of the GFP fusion with AU-A230 or AU-A260 (20°C, 15,000 rpm); material migrating at 77S (monosomal translating complex); cycloheximide added to cells; cells on glucose (elongation), or glucose depleted 10 min and glucose added back for 1 min or 0 min (initiation).

Experiment [2] concerns the target T1, Flag-PAB1. The experiment is described as above.
Experiment [3] has as its target T3, Flag-PAB1 (yeast), P04147.
T3 chain: T1 sequence (looked up)
In words: co-IP; Flag-PAB1 co-expressed with PAB1-GFP in yeast; anti-Flag purification; fraction not stated. The conditions noted are these: remark: other sources report otherwise.

B1: RPL7A-GFP (protein, UniProt P05737 1-244)
chain: MAAEKILTPESQLKKSKAQQKTAEQVAAERAARKAANKEKRAIILERNAAYQKEYETAERNIIQAKRDAKAAGSYYVEAQHKLVFVVRIKGINKIPPKPRKVLQLLRLTRINSGTFVKVTKATLELLKLIEPYVAYGYPSYSTIRQLVYKRGFGKINKQRVPLSDNAIIEANLGKYGILSIDDLIHEIITVGPHFKQANNFLWPFKLSNPSGGWGVPRKFKHFIQGGSFGNREEFINKLVKSMN
In the case of B1, the binding entry with Flag-PAB1 [1] is on record as “binds”.

B2: RPL6B-GFP (protein, UniProt P05739 1-176)
chain: MTAQQAPKWYPSEDVAAPKKTRKAVRPQKLRASLVPGTVLILLAGRFRGKRVVYLKHLEDNTLLVTGPFKVNGVPLRRVNARYVIATSTKVSVEGVNVEKFNVEYFAKEKLTKKEKKEANLFPEQQTKEIKTERVEDQKVVDKALLAEIKKTPLLKQYLSASFSLKNGDKPHLLKF
On to B2, for which the binding entry with Flag-PAB1 [1] is given as “binds”.

B3: RPS4B-GFP (protein, UniProt P0CX36 1-261)
chain: MARGPKKHLKRLAAPHHWLLDKLSGCYAPRPSAGPHKLRESLPLIVFLRNRLKYALNGREVKAILMQRHVKVDGKVRTDTTYPAGFMDVITLDATNENFRLVYDVKGRFAVHRITDEEASYKLGKVKKVQLGKKGVPYVVTHDGRTIRYPDPNIKVNDTVKIDLASGKITDFIKFDAGKLVYVTGGRNLGRIGTIVHKERHDGGFDLVHIKDSLDNTFVTRLNNVFVIGEQGKPYISLPKGKGIKLSIAEERDRRRAQQGL
On to B3, for which the binding entry in the experiment with Flag-PAB1 [1], with RPL25A-Flag (yeast), in the experiment with eIF4E-Flag and with Flag-PAB1 [2] was “binds” each time.

B4: STM1-GFP (protein, UniProt P39015 1-273)
chain: MSNPFDLLGNDVEDADVVVLPPKEIVKSNTSSKKADVPPPSADPSKARKNRPRPSGNEGAIRDKTAGRRNNRSKDVTDSATTKKSNTRRATDRHSRTGKTDTKKKVNQGWGDDKKELSAEKEAQADAAAEIAEDAAEAEDAGKPKTAQLSLQDYLNQQANNQFNKVPEAKKVELDAERIETAEKEAYVPATKVKNVKSKQLKTKEYLEFDATFVESNTRKNFGDRNNNSRNNFNNRRGGRGARKGNNTANATNSANTVQKNRNIDVSNLPSLA
For B4, the binding result in the experiment with RPL25A-Flag (yeast) is listed as “binds”.

B5: PAB1-GFP (natural protein, yeast, UniProt P04147 1-577, looked up)
chain: T1 sequence (looked up)
notes: the printed name puts GFP after the protein; source: yeast strain carrying the GFP fusion, in crude extract
Take B5: the binding result in experiment [3] is “no binding”.
